Data as given in PubChem BioAssay AID652272 (Drosophila RNAi Screening Center, 2013).
The screen tested about 21,000 reagents; this is a random part of those with a known target gene and a result. Of all reagents, 503 (2.4%) are marked active. 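Raw plate light values, not normalised; calls rest on replicate z-scores that were not deposited; hits include reporter decreases as well as increases.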 Reagent sequences are not shown. Not stated in the record: the amount of reagent, the time to read-out.

Screen: 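Genome-wide knock-down search for components of Hedgehog signalling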 (primary screen)
System: Drosophila clone 8 (Cl8) cells
Knock-down reagent: long dsRNA against Drosophila genes
Detection: 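Plate reader light from a firefly reporter under a ptc promoter fragment that responds to Hedgehog, with Renilla light as transfection reference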
Direction: firefly Hh reporter signal: higher = more ptc reporter light; Renilla reference signal: higher = more Renilla control light
Active means: 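Called a hit if the two-replicate mean z-score lies below -2 or above +3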
Calls: active = hit: reporter lowered or raised; inactive = not a hit

CG11379 [DRSC18629]: firefly Hh reporter signal, replicate 1 = 77445; firefly Hh reporter signal, replicate 2 = 1.58e5; Renilla reference signal, replicate 1 = 2340; Renilla reference signal, replicate 2 = 5993; activity call = inactive
CG6729 [DRSC02984]: firefly Hh reporter signal, replicate 1 = 1.75e5; firefly Hh reporter signal, replicate 2 = 7.90e5; firefly Hh reporter signal, replicate 3 = 1.48e5; Renilla reference signal, replicate 1 = 6509; Renilla reference signal, replicate 2 = 39960; activity call = inactive
CG16734 [DRSC15143]: firefly Hh reporter signal, replicate 1 = 72266; firefly Hh reporter signal, replicate 2 = 62344; Renilla reference signal, replicate 1 = 2728; Renilla reference signal, replicate 2 = 1714; activity call = inactive
Stat92E [DRSC16870]: firefly Hh reporter signal, replicate 1 = 99403; firefly Hh reporter signal, replicate 2 = 1.05e5; Renilla reference signal, replicate 1 = 3954; Renilla reference signal, replicate 2 = 3671; activity call = inactive
Rab3 [DRSC07523]: firefly Hh reporter signal, replicate 1 = 1.47e5; firefly Hh reporter signal, replicate 2 = 1.01e5; Renilla reference signal, replicate 1 = 6165; Renilla reference signal, replicate 2 = 4473; activity call = inactive
Drip [DRSC07405]: firefly Hh reporter signal, replicate 1 = 96427; firefly Hh reporter signal, replicate 2 = 81920; Renilla reference signal, replicate 1 = 2249; Renilla reference signal, replicate 2 = 5347; activity call = inactive
CG17404 [DRSC15234]: firefly Hh reporter signal, replicate 1 = 1.05e5; firefly Hh reporter signal, replicate 2 = 2.02e5; Renilla reference signal, replicate 1 = 2262; Renilla reference signal, replicate 2 = 5702; activity call = inactive

Next part (2 carried over from the part before).
Drip [DRSC07405]: firefly Hh reporter signal, replicate 1 = 96427; firefly Hh reporter signal, replicate 2 = 81920; Renilla reference signal, replicate 1 = 2249; Renilla reference signal, replicate 2 = 5347; activity call = inactive
CG17404 [DRSC15234]: firefly Hh reporter signal, replicate 1 = 1.05e5; firefly Hh reporter signal, replicate 2 = 2.02e5; Renilla reference signal, replicate 1 = 2262; Renilla reference signal, replicate 2 = 5702; activity call = inactive
CG13377 [DRSC18622]: firefly Hh reporter signal, replicate 1 = 84571; firefly Hh reporter signal, replicate 2 = 1.45e5; Renilla reference signal, replicate 1 = 1717; Renilla reference signal, replicate 2 = 6160; activity call = inactive
Fibp [DRSC11031]: firefly Hh reporter signal, replicate 1 = 76630; firefly Hh reporter signal, replicate 2 = 71472; Renilla reference signal, replicate 1 = 3485; Renilla reference signal, replicate 2 = 3197; activity call = inactive
alphaSnap (alpha Soluble NSF attachment protein) [DRSC11285]: firefly Hh reporter signal, replicate 1 = 43441; firefly Hh reporter signal, replicate 2 = 38960; Renilla reference signal, replicate 1 = 2407; Renilla reference signal, replicate 2 = 2520; activity call = active
CG4839 [DRSC02783]: firefly Hh reporter signal, replicate 1 = 1.20e5; firefly Hh reporter signal, replicate 2 = 57034; Renilla reference signal, replicate 1 = 3909; Renilla reference signal, replicate 2 = 2572; activity call = inactive
CG4839 [DRSC02784]: firefly Hh reporter signal, replicate 1 = 92010; firefly Hh reporter signal, replicate 2 = 54070; Renilla reference signal, replicate 1 = 2123; Renilla reference signal, replicate 2 = 4691; activity call = inactive
